Reference: patent publication US20080207659A1, “INHIBITORS OF PHOSPHODIESTERASE TYPE 4” (priority 2007, published 2008)
Some results were stated once for a whole list of compounds, not compound by compound. Some ranges recur; such a range may be that of the whole group of compounds.

Chains of the proteins cited; added tags and fusions are not shown. Residues count along the entry.
UniProt Q07343, 1-564 isoform Q07343-2, species assumed: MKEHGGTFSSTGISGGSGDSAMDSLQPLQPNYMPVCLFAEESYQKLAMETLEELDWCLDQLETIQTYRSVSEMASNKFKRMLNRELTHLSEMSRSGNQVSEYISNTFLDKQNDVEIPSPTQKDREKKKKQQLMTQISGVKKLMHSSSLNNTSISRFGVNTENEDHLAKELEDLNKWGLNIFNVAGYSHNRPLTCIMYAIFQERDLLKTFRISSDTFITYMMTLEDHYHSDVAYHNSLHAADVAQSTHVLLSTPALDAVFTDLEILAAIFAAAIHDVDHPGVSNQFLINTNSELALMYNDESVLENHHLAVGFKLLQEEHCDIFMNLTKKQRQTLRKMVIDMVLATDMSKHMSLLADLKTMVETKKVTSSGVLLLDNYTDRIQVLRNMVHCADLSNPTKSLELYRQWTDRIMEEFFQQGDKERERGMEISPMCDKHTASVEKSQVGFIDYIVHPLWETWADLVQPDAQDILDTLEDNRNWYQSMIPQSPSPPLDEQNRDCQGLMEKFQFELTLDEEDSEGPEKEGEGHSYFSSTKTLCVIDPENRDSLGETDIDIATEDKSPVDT

target: T1, PDE4B (Homo sapiens, UniProt Q07343); assay: PDE 4 enzyme assay (lysate of HEK293 cells transfected with PDE4B2 plasmids, cAMP ELISA); assay type: biochemical; conditions: cAMP 1 μM, 30° C., 45-60 min; units printed within the range (nM to μM)
T1 construct: expressed in transfected cells; host or cells: HEK293

IC50, 140 to 10000 nM:
CCCn1c(=O)n(-c2ccc(-c3ccc(OC)c(OC4CCCC4)c3)cn2)c2ccccc21 [Compound No. 21, 1-{5-[3-(Cyclopentyloxy)-4-methoxyphenyl]pyridin-2-yl}-3-propyl-1,3-dihydro-2H-benzimidazol-2-one]
COc1ccc(-c2ccnc(-n3c(=O)[nH]c4ccccc43)n2)cc1OC1CCCC1 [Compound No. 25, 1-{4-[3-(Cyclopentyloxy)-4-methoxyphenyl]pyrimidin-2-yl}-1,3-dihydro-2H-benzimidazol-2-one]
COc1ccc(-c2ccnc(-n3c(=O)[nH]c4ccccc43)n2)cc1OC [Compound No. 10, 1-[4-(3,4-Dimethoxyphenyl)pyrimidin-2-yl]-1,3-dihydro-2H-benzimidazol-2-one]
COc1ccc(-c2ccc(-n3c(=O)n(Cc4cccnc4)c4ccccc43)nc2)cc1OC1CCCC1 [Compound No. 32, 1-{5-[3-(Cyclopentyloxy)-4-methoxyphenyl]pyridin-2-yl}-3-(pyridin-3-ylmethyl)-1,3-dihydro-2H-benzimidazol-2-one]
CCn1c(=O)n(-c2nccc(-c3ccc(OC)c(OC)c3)n2)c2ccccc21 [Compound No. 12, 1-[4-(3,4-Dimethoxyphenyl)pyrimidin-2-yl]-3-ethyl-1,3-dihydro-2H-benzimidazol-2-one]
COc1ccc(Cn2c(=O)n(-c3ccc(-c4ccc(OC)c(OC5CCCC5)c4)cn3)c3ccccc32)cc1 [Compound No. 30, 1-{5-[3-(Cyclopentyloxy)-4-methoxyphenyl]pyridin-2-yl}-3-(4-methoxybenzyl)-1,3-dihydro-2H-benzimidazol-2-one]
COc1ccc(-c2ccc(-n3c(=O)n(C(=O)c4ccccc4)c4ccccc43)nc2)cc1OC1CCCC1 [Compound No. 39, 1-{5-[3-(Cyclopentyloxy)-4-methoxyphenyl]pyridin-2-yl}-3-(phenylcarbonyl)-1,3-dihydro-2H-benzimidazol-2-one]
COc1ccc(-c2ccc(-n3c(=O)n(C(C)C)c4ccccc43)nc2)cc1OC1CCCC1 [Compound No. 23, 1-{5-[3-(Cyclopentyloxy)-4-methoxyphenyl]pyridin-2-yl}-3-isopropyl-1,3-dihydro-2H-benzimidazol-2-one]
CCCCCCCNC(=O)n1c(=O)n(-c2ccc(-c3ccc(OC)c(OC4CCCC4)c3)cn2)c2ccccc21 [Compound No. 51, 3-{5-[3-(Cyclopentyloxy)-4-methoxyphenyl]pyridin-2-yl}-N-heptyl-2-oxo-2,3-dihydro-1H-benzimidazole-1-carboxamide]
COc1ccc(-c2ccc(-n3c(=O)[nH]c4ccccc43)nc2)cc1OC1CCCC1 [Compound No. 20, 1-{5-[3-(Cyclopentyloxy)-4-methoxyphenyl]pyridin-2-yl}-1,3-dihydro-2H-benzimidazol-2-one]
COc1ccc(-c2ccc(-n3c(=O)n(C)c4ccccc43)nc2)cc1OC1CCCC1 [Compound No. 16, 1-{5-[3-(Cyclopentyloxy)-4-methoxyphenyl]pyridin-2-yl}-3-methyl-1,3-dihydro-2H-benzimidazol-2-one]
COc1ccc(-c2cnc(-n3c(=O)[nH]c4ccccc43)nc2)cc1OC1CCCC1 [Compound No. 9, 1-{5-[3-(Cyclopentyloxy)-4-methoxyphenyl]pyrimidin-2-yl}-1,3-dihydro-2H-benzimidazol-2-one]
COc1ccc(-c2ccnc(-n3c(=O)n(C(=O)OC(C)(C)C)c4ccccc43)n2)cc1OC1CCCC1 [Compound No. 24, tert-Butyl-3-{4-[3-(cyclopentyloxy)-4-methoxyphenyl]pyrimidin-2-yl}-2-oxo-2,3-dihydro-1H-benzimidazole-1-carboxylate]
COc1ccc(-c2cnc(-n3c(=O)n(C(=O)c4ccccc4)c4ccccc43)nc2)cc1OC1CCCC1 [Compound No. 37, 1-{5-[3-(Cyclopentyloxy)-4-methoxyphenyl]pyrimidin-2-yl}-3-(phenylcarbonyl)-1,3-dihydro-2H-benzimidazol-2-one]
COc1ccc(-c2ccnc(-n3c(=O)n(C4CCCC4)c4ccccc43)n2)cc1OC1CCCC1 [Compound No. 43, 1-Cyclopentyl-3-{4-[3-(cyclopentyloxy)-4-methoxyphenyl]pyrimidin-2-yl}-1,3-dihydro-2H-benzimidazol-2-one]
